This is an account of results in article PMC6511871.

Sequences of proteins named here, by UniProt entry; tags and fusion partners are left off.
UniProt Q9H1D9: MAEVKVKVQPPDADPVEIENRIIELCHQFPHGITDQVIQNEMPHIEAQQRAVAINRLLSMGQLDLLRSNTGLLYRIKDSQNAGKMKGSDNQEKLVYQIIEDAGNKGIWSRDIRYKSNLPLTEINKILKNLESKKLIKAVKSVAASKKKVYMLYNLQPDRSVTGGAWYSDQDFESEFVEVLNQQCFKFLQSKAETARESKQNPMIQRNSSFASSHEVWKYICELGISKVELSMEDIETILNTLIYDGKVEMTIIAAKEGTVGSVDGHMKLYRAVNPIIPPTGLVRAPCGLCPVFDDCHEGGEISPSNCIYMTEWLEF

Results are given in words; binding and its absence hold for the method and conditions named. Binding seen in cells or lysates may run through a third protein. Some results given as binding are weak or reduced against the parent protein; the word gives no strength.

This assay concerns the target HaloTag-POLR3F (human) (UniProt Q9H1D9). Briefly: pull-down; HaloTag fusion covalently captured from 293A cell lysate on HaloLink resin (30 min, room temperature), five washes with PD Washing Buffer, non-covalently associated proteins eluted by boiling in Laemmli sample buffer, western blot for POLR3A.

B1: RNA polymerase III catalytic subunit (POLR3A) (protein, UniProt O14802 1-1390)
chain: MVKEQFRETDVAKKISHICFGMKSPEEMRQQAHIQVVSKNLYSQDNQHAPLLYGVLDHRMGTSEKDRPCETCGKNLADCLGHYGYIDLELPCFHVGYFRAVIGILQMICKTCCHIMLSQEEKKQFLDYLKRPGLTYLQKRGLKKKISDKCRKKNICHHCGAFNGTVKKCGLLKIIHEKYKTNKKVVDPIVSNFLQSFETAIEHNKEVEPLLGRAQENLNPLVVLNLFKRIPAEDVPLLLMNPEAGKPSDLILTRLLVPPLCIRPSVVSDLKSGTNEDDLTMKLTEIIFLNDVIKKHRISGAKTQMIMEDWDFLQLQCALYINSELSGIPLNMAPKKWTRGFVQRLKGKQGRFRGNLSGKRVDFSGRTVISPDPNLRIDEVAVPVHVAKILTFPEKVNKANINFLRKLVQNGPEVHPGANFIQQRHTQMKRFLKYGNREKMAQELKYGDIVERHLIDGDVVLFNRQPSLHKLSIMAHLARVKPHRTFRFNECVCTPYNADFDGDEMNLHLPQTEEAKAEALVLMGTKANLVTPRNGEPLIAAIQDFLTGAYLLTLKDTFFDRAKACQIIASILVGKDEKIKVRLPPPTILKPVTLWTGKQIFSVILRPSDDNPVRANLRTKGKQYCGKGEDLCANDSYVTIQNSELMSGSMDKGTLGSGSKNNIFYILLRDWGQNEAADAMSRLARLAPVYLSNRGFSIGIGDVTPGQGLLKAKYELLNAGYKKCDEYIEALNTGKLQQQPGCTAEETLEALILKELSVIRDHAGSACLRELDKSNSPLTMALCGSKGSFINISQMIACVGQQAISGSRVPDGFENRSLPHFEKHSKLPAAKGFVANSFYSGLTPTEFFFHTMAGREGLVDTAVKTAETGYMQRRLVKSLEDLCSQYDLTVRSSTGDIIQFIYGGDGLDPAAMEGKDEPLEFKRVLDNIKAVFPCPSEPALSKNELILTTESIMKKSEFLCCQDSFLQEIKKFIKGVSEKIKKTRDKYGINDNGTTEPRVLYQLDRITPTQVEKFLETCRDKYMRAQMEPGSAVGALCAQSIGEPGTQMTLKTFHFAGVASMNITLGVPRIKEIINASKAISTPIITAQLDKDDDADYARLVKGRIEKTLLGEISEYIEEVFLPDDCFILVKLSLERIRLLRLEVNAETVRYSICTSKLRVKPGDVAVHGEAVVCVTPRENSKSSMYYVLQFLKEDLPKVVVQGIPEVSRAVIHIDEQSGKEKYKLLVEGDNLRAVMATHGVKGTRTTSNNTYEVEKTLGIEAARTTIINEIQYTMVNHGMSIDRRHVMLLSDLMTYKGEVLGITRFGLAKMKESVLMLASFEKTADHLFDAAYFGQKDSVCGVSECIIMGIPMNIGTGLFKLLHKADRDPNPPKRPLIFDTNEFHIPLVT
Turning to B1, the binding result was “binds”.
